Our source for the survivor count and T/C values is PubChem BioAssay AID248 (DTP/NCI, 2004).

The list shows only some results of the screen, not a fair sample: it is rich in T/C values a quarter to a half above the control, in often repeated tests (any T/C) and in doses without a T/C. Other doses and runs of a compound stand elsewhere. T/C is the treated group as % of the vehicle group. Some doses have a count of surviving animals in place of a T/C: the source holds a T/C of zero for them, seemingly a mark for toxic or unscored doses. Some survivor counts are full or nearly so, which does not show that the dose was tolerated: survival well below the control is almost never listed, so the zero probably covers shortened survival too. Counts of survivors are from the toxicity check (mostly the fifth day) where no day follows; animals may have died later. Schedules are NCI's codes, taken here to give the interval after Q, in days (D) or hours (H), and the number of doses after X. Some schedule codes hold Z or #, which are not explained here. Some structures stand for samples that the source files as different forms (salt, stereo form or complex); doses refer to the form tested. Where survival is the endpoint, the PubChem record calls one and a half times the control and up active, and a quarter to a half above the control has no call in these data; cut-offs in other NCI protocols can differ.

The test system of the test is L1210 leukemia ip in BDF1 mice, survival T/C. Put plainly: NCI In Vivo Anticancer Drug Screen. Data for tumor model L1210 Leukemia (intraperitoneal) in B6D2F1 (BDF1) mice. The note with it: T/C endpoint: mean survival time, higher T/C = longer survival.
Setting [1] is: dose: 400.0 mg/kg/injection, schedule: Q01DX009 (ip), vehicle: Klucel (hydroxypropylcellulose) (HPC).
[2] abbreviates: dose: 400.0 mg/kg/injection, schedule: Q01DX001 (ip), vehicle: Klucel (hydroxypropylcellulose) (HPC).
Where [3] appears, read: dose: 200.0 mg/kg/injection, schedule: Q04DX003 (ip), vehicle: Klucel (hydroxypropylcellulose) (HPC).
Setting [4] is: dose: 400.0 mg/kg/injection, schedule: Q04DX003 (ip), vehicle: Klucel (hydroxypropylcellulose) (HPC).
Where [5] appears, read: dose: 50.0 mg/kg/injection, schedule: Q01DX009 (ip), vehicle: saline.
The mark [6] stands for this setting: dose: 150.0 mg/kg/injection, schedule: Q01DX001 (ip), vehicle: saline.
Setting [7] is: dose: 300.0 mg/kg/injection, schedule: Q01DX001 (ip), vehicle: saline.
Setting [8] is: dose: 400.0 mg/kg/injection, schedule: Q01DX001 (ip), vehicle: saline.
[9] abbreviates: dose: 75.0 mg/kg/injection, schedule: Q01DX001 (ip), vehicle: saline.
[10] abbreviates: dose: 80.0 mg/kg/injection, schedule: Q01DX001 (ip), vehicle: saline.

Turning to `COC(=O)N/N=C/c1ccccc1Cl`, the survivor count under setting [1] was 2 of 6.

Take `COc1ccc(C(=O)c2ccc([N+](=O)[O-])cc2)c(OC)c1`: the survivor count under setting [2] is recorded as 3 of 3.

Consider `O=P(O)(N(CCCl)CCCl)N1CCN(Cc2ccccc2)CC1`, for which the T/C (dose: 300.0 mg/kg/injection, schedule: Q01DX Z (ip), vehicle: other) was 128 % of control.

On to `Nc1cc(N)nc(S(=O)O)n1`, for which the survivor count is, setting by setting: under setting [3], 2 of 6; under setting [4], 0 of 6.

As for `Nc1ncnc2c1nnn2C1CC(CO)C(O)C1O` (stereo not drawn), where the note is “dose: 100.0 mg/kg/injection, schedule: Q04DX003 (ip), vehicle: other”, the T/C is 126 % of control.

In the case of `C=C(Br)CNS(C)(=O)=O`, the survivor count runs as follows: (dose: 50.0 mg/kg/injection, schedule: Q04DX003 (ip), vehicle: saline) 0 of 6; (dose: 100.0 mg/kg/injection, schedule: Q04DX003 (ip), vehicle: saline) 0 of 6; (dose: 200.0 mg/kg/injection, schedule: Q04DX003 (ip), vehicle: saline) 0 of 6; (dose: 400.0 mg/kg/injection, schedule: Q04DX003 (ip), vehicle: saline) 0 of 6.

`CCCCCCCCCCOC(=O)COc1ccc(C(C)(C)C)cc1`: the survivor count under setting [5] is reported as 3 of 3.

For `C=CCSC1=NC(=O)C(CCCC)C(=O)N1C` (stereo not drawn), the survivor count is listed as 0 of 6 under setting [6] and 0 of 6 under setting [7].

On to `CN(C=O)C(=S)[S][Sb]([S]C(=S)Nc1ccc(S(=O)(=O)Nc2ccc(N=Nc3ccccc3)cc2)cc1)[S]C(=S)N(C)C=O`, for which, for the setting “dose: 400.0 mg/kg/injection, schedule: Q01DX001 (ip), vehicle: steroid suspending solution”, the survivor count is listed as 0 of 6.

Take `OC1c2ccccc2-c2ccc(N(Cc3ccccc3)Cc3ccccc3)cc21` (stereo not drawn): the survivor count reads like this: (dose: 100.0 mg/kg/injection, schedule: Q04DX003 (ip), vehicle: saline with Tween-80) 6 of 6; (dose: 400.0 mg/kg/injection, schedule: Q04DX003 (ip), vehicle: saline with Tween-80) 6 of 6.

For the molecule `[Cl][Hg][c]1ccccc1N=Nc1ccccc1`, the survivor count was 3 of 6 (dose: 25.0 mg/kg/injection, schedule: Q01DX009 (ip), vehicle: saline with Tween-80); 0 of 6 (dose: 50.0 mg/kg/injection, schedule: Q01DX009 (ip), vehicle: saline with Tween-80); 0 of 6 (dose: 100.0 mg/kg/injection, schedule: Q01DX009 (ip), vehicle: saline with Tween-80); 0 of 6 (dose: 200.0 mg/kg/injection, schedule: Q01DX009 (ip), vehicle: saline with Tween-80); 0 of 6 (dose: 400.0 mg/kg/injection, schedule: Q01DX009 (ip), vehicle: saline with Tween-80).

Take `CO[C@@]12[C@H](COC(N)=O)C3=C(C(=O)C(C)=C(NCCO)C3=O)N1C[C@@H]1N[C@@H]12`: the T/C was 126 % of control (dose: 1.5 mg/kg/injection, schedule: Q01DX009 (ip), vehicle: saline); 142 % of control (dose: 2.7 mg/kg/injection, schedule: Q01DX009 (ip), vehicle: saline); 131 % of control (dose: 4.5 mg/kg/injection, schedule: Q01DX009 (ip), vehicle: saline); 133 % of control (dose: 6.6 mg/kg/injection, schedule: Q01DX001 (ip), vehicle: acetone); 143 % of control (dose: 9.9 mg/kg/injection, schedule: Q01DX001 (ip), vehicle: acetone); 148 % of control (dose: 15.0 mg/kg/injection, schedule: Q01DX001 (ip), vehicle: acetone). For the same molecule, the T/C was 125 % of control (dose: 15.0 mg/kg/injection, schedule: Q01DX001 (ip), vehicle: saline) and 143 % of control (dose: 22.0 mg/kg/injection, schedule: Q01DX001 (ip), vehicle: acetone). Moreover, the survivor count (dose: 50.0 mg/kg/injection, schedule: Q01DX001 (ip), vehicle: acetone) was 6 of 6 and the survivor count (dose: 75.0 mg/kg/injection, schedule: Q01DX001 (ip), vehicle: acetone) is listed as 1 of 6.

In the case of `O=C1CCn2c1c(O)c1ccccc1c2=O`, the survivor count under setting [8] is listed as 1 of 6.

Consider `CSc1ccc(OC(=O)Nc2cc(C)ccc2C)cc1`, for which the survivor count under setting [1] is on record as 6 of 6.

In the case of `CC(C)(C)C(O)C1CCCS1(=O)=O` (stereo not drawn), the survivor count is, setting by setting: (dose: 100.0 mg/kg/injection, schedule: Q01DX001 (ip), vehicle: Klucel (hydroxypropylcellulose) (HPC)) 0 of 6; (dose: 200.0 mg/kg/injection, schedule: Q01DX001 (ip), vehicle: Klucel (hydroxypropylcellulose) (HPC)) 0 of 6; under setting [2], 0 of 6.

For the molecule `C=C/C=C\N(CC)CC`, the survivor count is reported as 3 of 6 (dose: 100.0 mg/kg/injection, schedule: Q01DX009 (ip), vehicle: water); 5 of 6 (dose: 100.0 mg/kg/injection, schedule: Q04DX003 (ip), vehicle: water); 1 of 6 (dose: 200.0 mg/kg/injection, schedule: Q04DX003 (ip), vehicle: water); 0 of 6 (dose: 400.0 mg/kg/injection, schedule: Q04DX003 (ip), vehicle: water).

As for `CC1(C)OC2COC(c3[nH]nc4c(=O)[nH]c(=O)[nH]c34)C2O1` (stereo not drawn), under setting [5], the T/C was 131 % of control. For the setting “dose: 200.0 mg/kg/injection, schedule: Q01DX005 (ip), vehicle: saline”, the survivor count is reported as 1 of 6.

Regarding `NNC(=S)S`, the survivor count was 0 of 6 under setting [9], 0 of 6 under setting [6] and 0 of 6 under setting [7].

Turning to `CCCC(CCC)NC(CC)COC(=O)c1ccc(N)cc1` (stereo not drawn), the survivor count is 3 of 6 (dose: 150.0 mg/kg/injection, schedule: Q01DX001 (ip), vehicle: other) and 0 of 6 (dose: 300.0 mg/kg/injection, schedule: Q01DX001 (ip), vehicle: other).

On to `CCC(C)C1(C)C(=O)N(C)C(=S)N(C)C1=O` (stereo not drawn), for which the survivor count by setting is: under setting [9], 3 of 6; under setting [10], 1 of 6; under setting [6], 3 of 6; under setting [7], 0 of 6.

Consider `NC1=NC(CNC(=O)c2cccc([N+](=O)[O-])c2)N(c2cccc(Cl)c2)C(N)=N1` (stereo not drawn), for which the survivor count is given as 3 of 6 (dose: 100.0 mg/kg/injection, schedule: Q01DX Z (ip), vehicle: methylcellulose (MC)); 2 of 6 (dose: 200.0 mg/kg/injection, schedule: Q01DX Z (ip), vehicle: methylcellulose (MC)); 6 of 6 (dose: 400.0 mg/kg/injection, schedule: Q01DX Z (ip), vehicle: methylcellulose (MC)).

As for `CCCC[P+](CCCC)(CCCC)Cc1ccccc1`, the survivor count by setting is: (dose: 50.0 mg/kg/injection, schedule: Q04DX003 (ip), vehicle: Klucel (hydroxypropylcellulose) (HPC)) 0 of 6; under setting [10], 0 of 6; (dose: 100.0 mg/kg/injection, schedule: Q01DX001 (ip), vehicle: saline) 1 of 6; (dose: 100.0 mg/kg/injection, schedule: Q04DX003 (ip), vehicle: Klucel (hydroxypropylcellulose) (HPC)) 0 of 6; (dose: 200.0 mg/kg/injection, schedule: Q01DX001 (ip), vehicle: saline) 0 of 6; under setting [3], 0 of 6. In addition, the survivor count under setting [8] is 0 of 6 and the survivor count under setting [4] is 0 of 6.

As for `Fc1cccc(N2CCOCC2)c1`, the survivor count under setting [8] was 2 of 4.
